Assay results: publication PMC7819943, “Rice protein-binding microarrays: a tool to detect cis-acting elements near promoter regions in rice”
The other results are listed elsewhere or left out.

Chains of the proteins cited; added tags and fusions are not shown.
UniProt Q0JBA9, entry or part of it: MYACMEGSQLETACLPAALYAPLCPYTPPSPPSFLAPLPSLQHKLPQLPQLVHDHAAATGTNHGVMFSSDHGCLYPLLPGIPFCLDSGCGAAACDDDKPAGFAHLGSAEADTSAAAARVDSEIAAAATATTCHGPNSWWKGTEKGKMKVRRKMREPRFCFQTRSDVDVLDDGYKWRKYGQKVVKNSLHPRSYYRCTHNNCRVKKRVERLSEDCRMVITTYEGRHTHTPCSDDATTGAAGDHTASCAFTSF

These sequences were tested against OsWRKY34 (Oryza sativa, UniProt Q0JBA9 1-250) (assay: protein-binding microarray (RPBM); PBS, 2% BSA, 51.3 ng/ul salmon testes DNA, 50 uM zinc acetate, 200 nM TF, 25 C, 1 h; high values mean tight binding). Settings: protein: recombinant; tags: N-terminal polyhistidine and DsRed monomer fusion (pET32a); label: CyDye5-dUTP incorporated in the synthesized complementary strand; 3' TTTTT single-stranded linker to array surface; dsDNA, one strand shown.
Summary of the method: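 The binding signal for each feature is its fluorescence intensity in arbitrary units. An Axon 4000B scanner was used to read a custom Agilent array that had been made double-stranded with Cy5-dUTP primer extension, blocked with 2% BSA, incubated at 25 °C for 1 h with 200 nM protein in PBS, 2% BSA, salmon testes DNA and 50 µM zinc acetate, and washed. The protein was an N-terminal polyhistidine–DsRed transcription factor fusion from E. coli BL21-CodonPlus, purified on Ni–NTA.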

Sequence | binding signal
TTAAGGAGGGATTGGGAGTTTAGAGGGATGGGCTATTAAGCGGAGTCACCTAGTGCAG | 8490 fluorescence intensity (a.u.)
TATGGGTCCCACGGGGTTATTATTTTCTGGATTCAATTGCCGGAGTCACCTAGTGCAG | 8360 fluorescence intensity (a.u.)
GCAGGCAACCAATATGAACTTTGACCCATAATAGCTGCATCGGAGTCACCTAGTGCAG | 8350 fluorescence intensity (a.u.)
ATCCATTGTTCAGACCTGCCTTATTACTAGCTGTAGAGATCGGAGTCACCTAGTGCAG | 8670 fluorescence intensity (a.u.)
CCGTCCTCTCCCCGGCGCCCGTGAACCGGAGAGAAGAGAACGGAGTCACCTAGTGCAG | 13100 fluorescence intensity (a.u.)
CTCGCTGCCCACCCTGCCTCCTCTGGTGTCGCCGCTCGACCGGAGTCACCTAGTGCAG | 8660 fluorescence intensity (a.u.)
TTTGTTTGTTATACTGTAGGGATGTGACTGCTTGGGTCTTCGGAGTCACCTAGTGCAG | 9020 fluorescence intensity (a.u.)
ACTTAATGGTATGGGTGAGCTCTCTTGAATGCATGCACACCGGAGTCACCTAGTGCAG | 8380 fluorescence intensity (a.u.)
CTAAAACCTTGTTTCGACACTTTCTTATGTGCCACTATTTCGGAGTCACCTAGTGCAG | 9340 fluorescence intensity (a.u.)
TTTTTTCGTTGACCGTGTGACCGCTTCGTATCCTGCGCGGCGGAGTCACCTAGTGCAG | 14700 fluorescence intensity (a.u.)
CCGATACTTGTAATACTTTTATTTCTTCTCGGTAATTAACCGGAGTCACCTAGTGCAG | 8950 fluorescence intensity (a.u.)
TGCCGTCCGTCCCAACTTCGTCTGGGCCTCTCGCCAACCACGGAGTCACCTAGTGCAG | 10600 fluorescence intensity (a.u.)
CATACTATTTATAAGATTTTATTGAATTGTTTCCTTGTTTCGGAGTCACCTAGTGCAG | 9310 fluorescence intensity (a.u.)
GAAGAGTGGGGAAGGATTTTTTTTTTTACATGTGGGTGCCCGGAGTCACCTAGTGCAG | 8960 fluorescence intensity (a.u.)
ACTTTCTCTGTTTTTCATGTATTTCTCGTTTCTTAATTCCCGGAGTCACCTAGTGCAG | 11300 fluorescence intensity (a.u.)
TTTGGTCACTGCATTGACCGGTCAGCATCAACGACTCCTTCGGAGTCACCTAGTGCAG | 9690 fluorescence intensity (a.u.)
TGAGGTGGTGGTTCGGGCTCTCGCGGCGGCGTCTTCCATGCGGAGTCACCTAGTGCAG | 9240 fluorescence intensity (a.u.)
CTAAAAGGATAGGTTGGTGTGGTGGGTTGGGCCGTGATTTCGGAGTCACCTAGTGCAG | 14400 fluorescence intensity (a.u.)
ATCGCCGGCTTCACCCTCGCCGCTCAATCCCAGCCGTCGGCGGAGTCACCTAGTGCAG | 8860 fluorescence intensity (a.u.)
TCCATGCAGTCTTCTTCTTCTGCAGCCTATGCTGTTAGTCCGGAGTCACCTAGTGCAG | 11700 fluorescence intensity (a.u.)
ATGCCTTTTTTTACCTTAGTTTCAATGAATATCATAAACACGGAGTCACCTAGTGCAG | 8680 fluorescence intensity (a.u.)
GTCTTTATCCCCAACTGCATATCATCAAACTTTCCTAATACGGAGTCACCTAGTGCAG | 8040 fluorescence intensity (a.u.)
TGATTTCAAATGTCCTTTTGTGTTGGTGCCTGTTTTATCTCGGAGTCACCTAGTGCAG | 9650 fluorescence intensity (a.u.)
GGTAGCAGTTTCTTCAAGTACCTGAACTCTCATTTTGGGGCGGAGTCACCTAGTGCAG | 10400 fluorescence intensity (a.u.)
TCGACACCGCCATTTGGTTAGCATCATCGGTCACTGCATTCGGAGTCACCTAGTGCAG | 9130 fluorescence intensity (a.u.)
GTATGCCATCTTGTATCCAACTTCGTCACCCGGTATCCTTCGGAGTCACCTAGTGCAG | 11200 fluorescence intensity (a.u.)
ATATCGTGATTATTACTCACCACACGTTGTACACAATGATCGGAGTCACCTAGTGCAG | 8200 fluorescence intensity (a.u.)

Individual results from above:
GGTAGCAGTTTCTTCAAGTACCTGAACTCTCATTTTGGGGCGGAGTCACCTAGTGCAG | binding signal: 10400 fluorescence intensity (a.u.)
TCGACACCGCCATTTGGTTAGCATCATCGGTCACTGCATTCGGAGTCACCTAGTGCAG | binding signal: 9130 fluorescence intensity (a.u.)
CCGTCCTCTCCCCGGCGCCCGTGAACCGGAGAGAAGAGAACGGAGTCACCTAGTGCAG | binding signal: 13100 fluorescence intensity (a.u.)

Next part

Sequence | binding signal
CTGCCTGCCTATTCATTCATTTTTGTAACTGATCGTTATTCGGAGTCACCTAGTGCAG | 11400 fluorescence intensity (a.u.)
GTTGTCATCACCCGGCCTGTAGTGTGCGCTCTGATCCTAGCGGAGTCACCTAGTGCAG | 8770 fluorescence intensity (a.u.)
CCTCATTTCTTTCATTCGCGTTGACTACTAATTTGCAGATCGGAGTCACCTAGTGCAG | 10200 fluorescence intensity (a.u.)
AGTGTGGTTGGGGATGAGGAAGAATGAGATAAGGTTGGGGCGGAGTCACCTAGTGCAG | 8730 fluorescence intensity (a.u.)
TGTTGTTTTTTTTTGGGTAATCTCTCCAGTTGCAGACTTGCGGAGTCACCTAGTGCAG | 8120 fluorescence intensity (a.u.)
ACCTGAGCTTCCGCTCCCTCGCCGGCGACGCCGCGGCGTCCGGAGTCACCTAGTGCAG | 8870 fluorescence intensity (a.u.)
GTTTTCCTGTAGTCTTCTCTGTAGCCTGTAGACTTTTTACCGGAGTCACCTAGTGCAG | 12700 fluorescence intensity (a.u.)
AGCAAGCTCTACCGCCACTGCCGCGCGGCTGTTCTTGCTTCGGAGTCACCTAGTGCAG | 10400 fluorescence intensity (a.u.)
TCGCTGCTTCACCGATGGAACTATTTCTTTTGTCCTTCATCGGAGTCACCTAGTGCAG | 11400 fluorescence intensity (a.u.)
AATGTATGACGCCGTTGACTTTTTATCAAACGTTTGACCACGGAGTCACCTAGTGCAG | 34800 fluorescence intensity (a.u.)
TGCTTCTTTTTCCCACATTCTCTCATGGATATCGATCCAGCGGAGTCACCTAGTGCAG | 9620 fluorescence intensity (a.u.)
CACTGGTCGTACCCGTGCGCCGCACTGCGTCGCGCCACGCCGGAGTCACCTAGTGCAG | 8290 fluorescence intensity (a.u.)
TGTCTGAGCGACATAAATCATATTGCCTACTTTCTCCGTACGGAGTCACCTAGTGCAG | 8320 fluorescence intensity (a.u.)
GTCAAAGCGTCTTCTAGTATGAAATGGGGTTCTTCAGTACCGGAGTCACCTAGTGCAG | 8610 fluorescence intensity (a.u.)
TTTTCTTTATTTTCATATGAGATCTCTCTGTTTTAGAATACGGAGTCACCTAGTGCAG | 9240 fluorescence intensity (a.u.)
GTCAGGTGGCGGCGGCGGCGGTGGTGGCGGTGGAGGTGGACGGAGTCACCTAGTGCAG | 14400 fluorescence intensity (a.u.)
TTTCCATTGTCCTCCGCGCCGCTCACCGACCTCGACGGCGCGGAGTCACCTAGTGCAG | 8940 fluorescence intensity (a.u.)
GCCGTGGTTCGATCGGGTGGCGGGTGGTTTTCCATCGGTCCGGAGTCACCTAGTGCAG | 8750 fluorescence intensity (a.u.)
TCTCTCTCCTCTCCTATTCTCTCTCGTTCTCCTCTCTGTGCGGAGTCACCTAGTGCAG | 8480 fluorescence intensity (a.u.)
ATTCATCACACAACTCATTCGTGGTCTTGCTTGTTTCGATCGGAGTCACCTAGTGCAG | 11600 fluorescence intensity (a.u.)
GTCAGTTCGGTTTCTGTTTTTGTGCTATTCGGTGTACGGCCGGAGTCACCTAGTGCAG | 9450 fluorescence intensity (a.u.)
ATATATAGTATATGTTATCAATTAATTGTCGTTTTGTCAACGGAGTCACCTAGTGCAG | 8780 fluorescence intensity (a.u.)
AGACATCACCATTCACCAATGATAGCAGCAATTCTCTCTTCGGAGTCACCTAGTGCAG | 9140 fluorescence intensity (a.u.)
GAAAAGAGATGGGAGGGATGGCTGATCAGCTCAGCTGGGGCGGAGTCACCTAGTGCAG | 8090 fluorescence intensity (a.u.)
TTTACCATTTTTGTTCCTTTTCCTTTTCTTAGTTTTTTTACGGAGTCACCTAGTGCAG | 11300 fluorescence intensity (a.u.)
AAAAAATTTTACAAACCCTGAGTTTCCATATCCAATGTTTCGGAGTCACCTAGTGCAG | 8030 fluorescence intensity (a.u.)
GAAAACCCTGCAATTTCCGAAATTTCGCTTCAATGGGTAACGGAGTCACCTAGTGCAG | 8280 fluorescence intensity (a.u.)
